No constants are given. Whether binding was seen depends on the method and setting. Binding seen in cells or lysates may run through a third protein. Some results given as binding are weak or reduced against the parent protein; the word gives no strength. Where a sequence is shown, tags or fusion partners need not be part of it.
Tests used:
[1] = biological target: T1, FLAG-tagged KDM2A-LF (full-length KDM2A lysine demethylase) (UniProt Q9Y2K7); assay: co-IP; myc-TCF7L1 and FLAG-KDM2A/B isoforms co-expressed in HEK293T; whole cell extract (300 mM NaCl, 0.5% NP-40) diluted to 150 mM NaCl and 0.1% NP-40; 500 ug extract rotated overnight at 4 C with 2.5 ug anti-FLAG antibody, Dynabeads Protein G; western blot with anti-myc
T1 sequence: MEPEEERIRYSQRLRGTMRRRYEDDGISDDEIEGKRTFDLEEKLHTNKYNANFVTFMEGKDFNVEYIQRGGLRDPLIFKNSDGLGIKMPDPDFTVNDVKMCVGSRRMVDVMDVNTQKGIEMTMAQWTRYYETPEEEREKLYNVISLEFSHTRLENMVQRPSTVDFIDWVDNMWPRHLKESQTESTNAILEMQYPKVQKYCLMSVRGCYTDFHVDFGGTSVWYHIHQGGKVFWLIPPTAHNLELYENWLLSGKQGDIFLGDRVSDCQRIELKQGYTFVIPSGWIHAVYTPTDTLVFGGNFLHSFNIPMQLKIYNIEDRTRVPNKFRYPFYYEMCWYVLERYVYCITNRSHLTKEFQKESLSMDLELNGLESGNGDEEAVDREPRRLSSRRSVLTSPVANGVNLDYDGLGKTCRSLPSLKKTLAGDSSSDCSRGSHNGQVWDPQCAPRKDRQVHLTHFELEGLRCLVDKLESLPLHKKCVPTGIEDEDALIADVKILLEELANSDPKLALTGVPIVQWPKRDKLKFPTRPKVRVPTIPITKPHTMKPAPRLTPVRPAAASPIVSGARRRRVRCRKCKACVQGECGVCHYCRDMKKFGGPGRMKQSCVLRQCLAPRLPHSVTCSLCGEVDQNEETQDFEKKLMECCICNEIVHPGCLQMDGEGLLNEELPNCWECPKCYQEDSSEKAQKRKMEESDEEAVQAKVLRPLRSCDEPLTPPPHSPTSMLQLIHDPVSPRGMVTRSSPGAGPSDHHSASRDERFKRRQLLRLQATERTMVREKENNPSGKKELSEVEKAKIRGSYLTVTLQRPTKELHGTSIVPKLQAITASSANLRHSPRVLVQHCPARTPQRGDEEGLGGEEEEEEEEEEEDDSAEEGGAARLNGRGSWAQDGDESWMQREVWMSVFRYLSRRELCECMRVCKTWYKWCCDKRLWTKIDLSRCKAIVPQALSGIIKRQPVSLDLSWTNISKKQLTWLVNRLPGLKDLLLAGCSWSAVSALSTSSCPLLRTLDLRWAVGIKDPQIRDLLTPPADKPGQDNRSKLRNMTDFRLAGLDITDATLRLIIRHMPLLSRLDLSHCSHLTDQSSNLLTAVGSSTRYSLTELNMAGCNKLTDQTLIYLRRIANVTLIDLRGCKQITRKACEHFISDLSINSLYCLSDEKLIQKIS

[2] = biological target: T2, FLAG-tagged KDM2B-LF (full-length KDM2B lysine demethylase) (UniProt Q8NHM5); assay: as above
T2 sequence: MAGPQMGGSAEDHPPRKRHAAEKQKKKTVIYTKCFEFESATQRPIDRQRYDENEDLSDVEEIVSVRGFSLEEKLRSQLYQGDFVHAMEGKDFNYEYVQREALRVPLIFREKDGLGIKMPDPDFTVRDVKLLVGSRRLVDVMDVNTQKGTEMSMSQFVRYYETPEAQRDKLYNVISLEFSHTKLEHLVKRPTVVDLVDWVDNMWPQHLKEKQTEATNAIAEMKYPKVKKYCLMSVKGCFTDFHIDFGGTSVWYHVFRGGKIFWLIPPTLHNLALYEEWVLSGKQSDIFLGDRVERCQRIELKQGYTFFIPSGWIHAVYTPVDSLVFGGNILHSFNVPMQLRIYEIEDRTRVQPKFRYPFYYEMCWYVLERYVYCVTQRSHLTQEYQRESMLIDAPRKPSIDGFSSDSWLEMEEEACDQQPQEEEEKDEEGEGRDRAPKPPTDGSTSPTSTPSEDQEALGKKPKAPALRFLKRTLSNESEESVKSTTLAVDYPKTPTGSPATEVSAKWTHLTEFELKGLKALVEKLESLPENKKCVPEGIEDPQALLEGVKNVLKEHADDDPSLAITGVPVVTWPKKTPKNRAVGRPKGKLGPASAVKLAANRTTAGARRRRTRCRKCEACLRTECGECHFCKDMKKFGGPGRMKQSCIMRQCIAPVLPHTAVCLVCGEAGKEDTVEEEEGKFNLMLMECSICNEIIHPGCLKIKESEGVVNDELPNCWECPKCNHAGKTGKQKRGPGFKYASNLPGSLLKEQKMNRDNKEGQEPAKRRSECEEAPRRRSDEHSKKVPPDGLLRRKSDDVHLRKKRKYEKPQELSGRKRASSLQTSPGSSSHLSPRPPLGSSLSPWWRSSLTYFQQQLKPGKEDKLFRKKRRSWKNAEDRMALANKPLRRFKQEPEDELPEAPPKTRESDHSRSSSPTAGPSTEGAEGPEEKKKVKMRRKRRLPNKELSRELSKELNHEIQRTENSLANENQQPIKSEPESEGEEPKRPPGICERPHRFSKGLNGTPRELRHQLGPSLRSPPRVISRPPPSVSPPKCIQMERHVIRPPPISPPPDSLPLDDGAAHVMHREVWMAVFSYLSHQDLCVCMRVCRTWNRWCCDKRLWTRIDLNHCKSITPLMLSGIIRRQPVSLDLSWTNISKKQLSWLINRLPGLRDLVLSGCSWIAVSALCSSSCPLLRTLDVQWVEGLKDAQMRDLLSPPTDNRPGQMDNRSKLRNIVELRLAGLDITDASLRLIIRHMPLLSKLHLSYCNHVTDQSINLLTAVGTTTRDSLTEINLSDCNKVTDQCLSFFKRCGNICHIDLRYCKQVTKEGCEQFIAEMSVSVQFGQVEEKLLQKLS

B1: myc-tagged TCF7L1 (protein, UniProt Q9HCS4 1-588)
chain: MPQLGGGGGGGGGGSGGGGGSSAGAAGGGDDLGANDELIPFQDEGGEEQEPSSDSASAQRDLDEVKSSLVNESENQSSSSDSEAERRPQPVRDTFQKPRDYFAEVRRPQDSAFFKGPPYPGYPFLMIPDLSSPYLSNGPLSPGGARTYLQMKWPLLDVPSSATVKDTRSPSPAHLSNKVPVVQHPHHMHPLTPLITYSNDHFSPGSPPTHLSPEIDPKTGIPRPPHPSELSPYYPLSPGAVGQIPHPLGWLVPQQGQPMYSLPPGGFRHPYPALAMNASMSSLVSSRFSPHMVAPAHPGLPTSGIPHPAIVSPIVKQEPAPPSLSPAVSVKSPVTVKKEEEKKPHVKKPLNAFMLYMKEMRAKVVAECTLKESAAINQILGRKWHNLSREEQAKYYELARKERQLHSQLYPTWSARDNYGKKKKRKREKQLSQTQSQQQVQEAEGALASKSKKPCVQYLPPEKPCDSPASSHGSMLDSPATPSAALASPAAPAATHSEQAQPLSLTTKPETRAQLALHSAAFLSAKAAASSSGQMGSQPPLLSRPLPLGSMPTALLASPPSFPATLHAHQALPVLQAQPLSLVTKSAH
**Q.** Which binding [1] does the source give for B1 here?
**A.** binds

**Q.** And the binding [2]?
**A.** binds

Source: PMC7588095
